Measurements: the supplement of paper PMC5949888
Most values lie at the floor of the assay. Slopes are relative: functional sequences can read slightly below zero.

These substances were tested on Saccharomyces cerevisiae PS128 hsf1 delta, HSF1(1-493) fusion (assay: growth estimate (transactivation domain function in HSF1 fusion, heat-shock survival) (a.u. (slope of normalised read count over time)); higher = stronger growth at 37°C, i.e. more transactivation activity). Details: library: random library.
For CRSHIIGRPGLKERATLPPQ, the growth estimate was < -0.25. VALIEQVYAY was tested, and the growth estimate was < -0.25. With DAR the growth estimate was < -0.25. With GPAESLDQLHAMKIQRVSAS the growth estimate was < -0.25. PARTGLRTNWAVMGTTSAGG was tested, and the growth estimate was < -0.25. In the case of KRFGNWTTS, the growth estimate is reported as < -0.25. In the case of LCTGKHRGAIIDNLVVRNVG, the growth estimate is reported as < -0.25. For GLSARCSE, the growth estimate was < -0.25. In the case of CMSNFLMIST, the growth estimate is reported as < -0.25. WSCRR was tested, and the growth estimate was < -0.25. In the case of KQTTISNGGSAAHGKVKHCD, the growth estimate is reported as < -0.25. For ECTQVDWLGSVLLDATGDVG, the growth estimate was < -0.25. For VRIGSSVGHVLEPVLCTGGT, the growth estimate was < -0.25. PHVEGVPLSSGLSTDL was tested, and the growth estimate was < -0.25. In the case of GSYVMFCGRPD, the growth estimate is reported as < -0.25. For ARSVA, the growth estimate was < -0.25. DSYDFLDRYSFQGCGSATSR gave a growth estimate of -0.245. With CWWASGQLNTPMRTRSSGSA the growth estimate was < -0.25. With GSIGTGQWNHECHRGYSHVA the growth estimate was < -0.25. In the case of VGLSDRSGSTRCGFKRARTS, the growth estimate is reported as < -0.25. VITYRTTQTANK was tested, and the growth estimate was < -0.25. For TYSWVIVRILFTRQIGTFRK, the growth estimate was < -0.25. With TQIVLRLEPNHRRAACAVTG the growth estimate was < -0.25. KRACSSCFQSKTPAAYCEGP was tested, and the growth estimate was < -0.25. With EITC the growth estimate was < -0.25. For GCFLNPLFIYVLVYIHPMPQ, the growth estimate was < -0.25. FRVIERLDLRDWASLCLHS was tested, and the growth estimate was < -0.25. In the case of YMRKVVRAISHWNRPLESAE, the growth estimate is reported as < -0.25. KFVAGLSNTVFSPPSLAVPS was tested, and the growth estimate was < -0.25. With KVGSCKSRAFD the growth estimate was < -0.25. With APCF the growth estimate was < -0.25. In the case of PTQPWGGEPPPGF, the growth estimate is reported as < -0.25. VWSRGRQGDR was tested, and the growth estimate was < -0.25. VGYQLVAWGYATGTLNTSTP was tested, and the growth estimate was < -0.25. With GRGTSRKLSGEGNSWGPH the growth estimate was < -0.25. For GKYRRKCLIWGWAVAQRKSV, the growth estimate was < -0.25. GASCRRGERFIPPLRGIVTC was tested, and the growth estimate was < -0.25. LSISKHVGYYEGDHEDDSSP was tested, and the growth estimate was < -0.25. DDKWTWALIIPSIPVA was tested, and the growth estimate was < -0.25. NDLPANRWDIHQISTVCPLG was tested, and the growth estimate was < -0.25. CRGQKGTAQLGYLMAPVP was tested, and the growth estimate was < -0.25. With LSP the growth estimate was < -0.25. IPFLIDGTRSSDCAEKPMRI was tested, and the growth estimate was < -0.25. With GGSLGEDVEVAIMGIAS the growth estimate was < -0.25. In the case of HIGWASRHAVCKSTRGVSR, the growth estimate is reported as < -0.25. SPQCR was tested, and the growth estimate was < -0.25. In the case of SDRLFMD, the growth estimate is reported as < -0.25. For PRRWIGMASVLI, the growth estimate was < -0.25. For ESYFSTNGNIFMFTA, the growth estimate was < -0.25. With VATRGQYRQCSWQSNSSAIG the growth estimate was < -0.25. QVTK gave a growth estimate of -0.178. ATG was tested, and the growth estimate was < -0.25. GSNMYTSFHH was tested, and the growth estimate was < -0.25. In the case of NQTSQAYRQRQLSPTCYR, the growth estimate is reported as < -0.25. In the case of YSRAGSFLTLYVVSI, the growth estimate is reported as < -0.25. For LSRLP, the growth estimate was < -0.25. Work on ATRISESECDLT yielded a growth estimate of -0.24. For PRVLGLPDG, the growth estimate was < -0.25. For STGHFEAEQARPRIATVCA, the growth estimate was < -0.25. For GETWRRLFSSISAWSLPDIR, the growth estimate was < -0.25. TRKASGRSNLW was tested, and the growth estimate was < -0.25. With ITDYASRHRRRFRVLKRPPY the growth estimate was < -0.25. With GALVKSSERQILFPHAYLPF the growth estimate was < -0.25. With GNTAIIRTSIAECCWHMRNG the growth estimate was < -0.25. EGRVALRIRVGIQNRSRVSV was tested, and the growth estimate was < -0.25. Work on CSVDLLMPKA yielded a growth estimate of -0.246. In the case of IAGMNLSPYVCAVFTSGGRP, the growth estimate is reported as < -0.25. For VPYQPDPSRGLLTRTLCVFY, the growth estimate was -0.205. PTLRSILRTTDQSV was tested, and the growth estimate was < -0.25. With ACDNYRGITPRCVSTASRAA the growth estimate was < -0.25. MINSTIRQGLTGRVYTQDRD was tested, and the growth estimate was < -0.25. GIDGA was tested, and the growth estimate was < -0.25. For DVALWWTAFRMWNGN, the growth estimate was < -0.25. With QWMGGGTPLVSPRKRGARHT the growth estimate was < -0.25. For STVLTACVSWHIRIRSDRRH, the growth estimate was < -0.25. RCDNW was tested, and the growth estimate was < -0.25. For FVLVNSRRG, the growth estimate was < -0.25. For LFASCARGP, the growth estimate was < -0.25. With RGRRIDRAVALNQMVVEWIQ the growth estimate was < -0.25. With DNANIRRDGVRPSMRRSRPA the growth estimate was < -0.25. For IPAKTGIGLDDYSRRPDLLP, the growth estimate was < -0.25. With DKVKPCRRVVVPRLTE the growth estimate was < -0.25. In the case of WPALMAC, the growth estimate is reported as < -0.25. For RSAKGVEL, the growth estimate was < -0.25. In the case of TEKRPV, the growth estimate is reported as < -0.25. With AGIHDTWTYSRPRVLYQSPR the growth estimate was < -0.25. In the case of AEPPALGSHLAKEYVAVGSP, the growth estimate is reported as < -0.25. In the case of HVRDKGKDR, the growth estimate is reported as < -0.25. Substance IPPHQSTPVHPGTSDART has a growth estimate of -0.229. With VWCAGSKIASRRAIGSMGAK the growth estimate was < -0.25. For RMKRSSPCNGWSGLRECVGQ, the growth estimate was < -0.25. For LVRGRMRWREGSTTFSPWPA, the growth estimate was < -0.25. For EVTGKINTGVQTPTGSRGGN, the growth estimate was < -0.25. In the case of PNMDH, the growth estimate is reported as < -0.25. For ERSYLPLTTSEWVVFESRNS, the growth estimate was < -0.25. With QRRLCDHMVALRAGIRSNSY the growth estimate was < -0.25. LLTPAKGAKADDGGTPRHVH was tested, and the growth estimate was < -0.25. PTLLPSLT was tested, and the growth estimate was < -0.25. With LTDITPAHRVRSQALASRGN the growth estimate was < -0.25. In the case of GKVTWFLTVGMYEVRDITYR, the growth estimate is reported as < -0.25. CAWYNTPCS was tested, and the growth estimate was < -0.25. With DGGFPATGHYLILSPAGWAA the growth estimate was < -0.25. In the case of GPHMRLGSPMSREFMNFSQP, the growth estimate is reported as < -0.25. MLRRA was tested, and the growth estimate was -0.243. SEKDEGLCTSWCSTPCNALD was tested, and the growth estimate was < -0.25. RLKRSLDSMVLVPSKGPYTN was tested, and the growth estimate was < -0.25. With HTQCLHRHRNRLLSRAVPFF the growth estimate was < -0.25. For FRGQLLGDRF, the growth estimate was < -0.25. With PNYVDPLCFSTGRDAPSASA the growth estimate was < -0.25. With PIVGRYLFK the growth estimate was < -0.25. With PMDRVGSLASL the growth estimate was < -0.25. In the case of TVWAHWNLCGSPSSLSY, the growth estimate is reported as < -0.25. GSEK was tested, and the growth estimate was < -0.25. For QPAWTFVSLNGEGYAAHAQG, the growth estimate was < -0.25. In the case of GPVGVIGVILDTAASS, the growth estimate is reported as -0.237. VDCSARD was tested, and the growth estimate was < -0.25. With WSVRQRLSVLRVSPKDLMG the growth estimate was < -0.25. GYWSRRLCVQSSKPLFHPLG was tested, and the growth estimate was < -0.25. For GRGAAALEFNNDAPQSAWTV, the growth estimate was < -0.25. RLGGVTVDQGPRTRRLTGDH was tested, and the growth estimate was < -0.25. RRQDRQDQSEGLGTLHSSGR was tested, and the growth estimate was < -0.25. With SIGLGALMITAIGSGLYRCV the growth estimate was < -0.25. For AMPTSGGLRAKPSMGH, the growth estimate was < -0.25. For HACKAEAEEVEYGHRG, the growth estimate was < -0.25. GKAAQGPC was tested, and the growth estimate was < -0.25. For GPV, the growth estimate was < -0.25. RSCRTIGTRRALCARLSDRA was tested, and the growth estimate was < -0.25. DAGIILCARRTSAPVHILFA was tested, and the growth estimate was < -0.25. In the case of HDVWSSVLIGLPVRGGCVTV, the growth estimate is reported as < -0.25. For ALRAMLSTV, the growth estimate was < -0.25. In the case of VLPPEERVHMG, the growth estimate is reported as < -0.25. In the case of VGCVMGPFRSERIATQDCGI, the growth estimate is reported as < -0.25. MHATGNAQK was tested, and the growth estimate was < -0.25. In the case of GWLNRHGLHCSLDRFARGER, the growth estimate is reported as < -0.25. For WGGAEMSE, the growth estimate was < -0.25. WNARRILIIVMPRTTISTPT was tested, and the growth estimate was < -0.25. With NGHYDEPVKVRKFSSGLENQ the growth estimate was < -0.25. In the case of WVYVGQSAVPVKWTHALGGE, the growth estimate is reported as < -0.25. In the case of GRGVMFKARGC, the growth estimate is reported as < -0.25. With VGLLGLEGGIKGPSD the growth estimate was < -0.25. In the case of VKVSSPRAEMRGHHSNVDRL, the growth estimate is reported as < -0.25. CVGMQIASTEIFVCN was tested, and the growth estimate was < -0.25. RSGFISYPQDSDWVPGFSIY was tested, and the growth estimate was -0.169. In the case of RVNGAKLQRRVL, the growth estimate is reported as < -0.25. GVWRWFIKGSNNDYYLETTA showed a growth estimate of -0.217. NHSKQRAPKTRRM was tested, and the growth estimate was < -0.25. ARGYVTPVNSVPLALMQPLL showed a growth estimate of -0.204. With IDPFRWTRGIKAATVVTGCR the growth estimate was < -0.25. In the case of EWISRFRYRNLMAWLVVSAV, the growth estimate is reported as < -0.25. For AEQVRVRRLLLYCRLLVWSS, the growth estimate was < -0.25. For NWPLTLLGHSPRQGSWITPS, the growth estimate was < -0.25. Substance EVGHRMGVQHFTVRPTR has a growth estimate of -0.246. With LSTMMSGSNEFRPEFHQGCD the growth estimate was < -0.25. In the case of GSRLTMTPFVVRLPQCWGIG, the growth estimate is reported as < -0.25. With NMSLSQPRATTSPGERRGEI the growth estimate was < -0.25.
